The supplement of paper PMC3682954
Structures can show the parent of a compound that is named as a salt. ± gives the standard deviation of the averaged measurements. This is one part of the list. Most values come without repeats; read them as rough.

System: RAW 264.7
Experiment: cell viability (MTT) relative to vehicle control; higher = more viable cells
Settings: stimulus: HMGB1 5 ug/ml, 18 h
[1] = compound concentration: 1 ug/ml

Structure (SMILES)	cell viability (compound concentration: 3 uM)	cell viability [1]
COc1cccc2c1[C@@H]1CN(CCCCn3c(=O)[nH]c4c(sc5ncc(-c6ccccc6)nc54)c3=O)C[C@@H]1CO2 [Fiduxosin hydrochloride]	105%	–
CCCCCCc1ccc(O)cc1O.Nc1c2ccccc2nc2ccccc12	110%	–
NC(=O)c1cc[n+](CC2=C(C(=O)O)N3C(=O)[C@@H](NC(=O)[C@@H](c4ccccc4)S(=O)(=O)[O-])[C@H]3SC2)cc1	105%	–
CCCCCCCCCc1ccc(OCCOCCOCCOCCOCCOCCOCCOCCOCCO)cc1	114%	–
CC(C)c1ccc2oc3nc(N)c(C(=O)O)cc3c(=O)c2c1	92.3%	–
CC1(C)S[C@@H]2[C@H](NC(=O)[C@H](NC(=O)N3CCNC3=O)c3ccccc3)C(=O)N2[C@H]1C(=O)O	113%	–
CC1(C)S[C@@H]2[C@H](NC(=O)[C@H](NC(=O)N3CCNC3=O)c3ccccc3)C(=O)N2[C@H]1C(=O)O [Azlocillin sodium salt]	78%	–
COC(=O)Nc1nc2cc(C(=O)c3ccccc3)ccc2[nH]1 [Mebendazole]	69.4%	–
COC(=O)Nc1nc2cc(C(=O)c3ccccc3)ccc2[nH]1 [Mebendazol]	76%	–
COC(=O)Nc1nc2cc(C(=O)c3ccccc3)ccc2[nH]1	98.8%	–
Clc1cnccn1 [2-Chloropyrazine]	90.7%	–
Nc1nc2c(ncn2[C@@H]2O[C@H](CO)[C@@H](O)[C@H]2O)c(=O)[nH]1 [Guanosine]	–	98%
Cc1cc2c(cc1S(N)(=O)=O)S(=O)(=O)CCC2 [Meticrane]	101%	–
Cc1cc2c(cc1S(N)(=O)=O)S(=O)(=O)CCC2	106%	–
CN1CCc2cc(O)c(O)cc2C(c2ccccc2)C1 (configuration not stated)	118%	–
CC[N+](C)(C)Cc1ccccc1Br	106%	–
CC[N+](C)(C)Cc1ccccc1Br [Bretylium tosylate]	115%	–
CCCCCCCCc1ccc(-c2ccc(C(=O)O)cc2)cc1	89%	–
C[N+](C)(C)CCCCCC[N+](C)(C)C [Hexamethonium bromide]	111%	–
C[N+](C)(C)CCCCCC[N+](C)(C)C [Hexamethonium dichloride]	108%	–
C[N+](C)(C)CCCCCC[N+](C)(C)C [Hexamethonium dibromide dihydrate]	91.1%	–

Structure (SMILES)	cell viability (compound concentration: 3 uM)	cell viability [1]
C[N+](C)(C)CCCCCC[N+](C)(C)C	109%	–
CC1C(=O)OC2C(O)C34C5CC(C(C)(C)C)C36C(OC(=O)C6O)OC4(C(=O)O5)C12O (configuration not stated) [Ginkgolide B]	–	98.3%
CCCCCC[C@@H]([C@@H](C)O)n1cnc2c(N)ncnc21 [erythro-9-(2-Hydroxy-3-nonyl)adenine hydrochloride]	110%	–
CN(C)/N=N/c1[nH]cnc1C(N)=O [Dacarbazine]	110 ± 4.1%	–
CN(C)/N=N/c1[nH]cnc1C(N)=O	98.2 ± 2.6%	–
Cc1onc(-c2c(Cl)cccc2Cl)c1C(=O)N[C@@H]1C(=O)N2[C@@H]1SC(C)(C)[C@@H]2C(=O)O	98.2%	–
Cc1onc(-c2c(Cl)cccc2Cl)c1C(=O)N[C@@H]1C(=O)N2[C@@H]1SC(C)(C)[C@@H]2C(=O)O [Dicloxacillin sodium salt]	96.5%	–
CN1C(C)(C)CCCC1(C)C [Pempidine tartrate]	110%	–
CN1C(C)(C)CCCC1(C)C	111%	–
CCOC(=O)[C@H](CCc1ccccc1)N[C@@H](C)C(=O)N1Cc2ccccc2C[C@H]1C(=O)O [Quinapril]	110%	–
CCOC(=O)[C@H](CCc1ccccc1)N[C@@H](C)C(=O)N1Cc2ccccc2C[C@H]1C(=O)O	104%	–
CCOC(=O)[C@H](CCc1ccccc1)N[C@@H](C)C(=O)N1Cc2ccccc2C[C@H]1C(=O)O [Quinapril HCl]	96.6%	–
CC(CCc1ccccc1)NCC(O)c1ccc(O)c(C(N)=O)c1 (configuration not stated)	108%	–
CC(CCc1ccccc1)NCC(O)c1ccc(O)c(C(N)=O)c1 (configuration not stated) [Labetalol hydrochloride]	101 ± 8.9%	–
Cc1cn(C2C=CC(CO)O2)c(=O)[nH]c1=O (configuration not stated) [2',3'-didehydro-3'-deoxythymidine]	110%	–
O=C(O)c1cccnc1Nc1cccc(C(F)(F)F)c1	106%	–
O=C(O)c1cccnc1Nc1cccc(C(F)(F)F)c1 [Niflumic acid]	94.7 ± 18%	–
Cc1oncc1C(=O)Nc1ccc(C(F)(F)F)cc1 [Leflunomide]	113 ± 16%	–
COc1ccc(C(Cl)=C(c2ccc(OC)cc2)c2ccc(OC)cc2)cc1 [Chlorotrianisene]	123%	–
COc1ccc(C(Cl)=C(c2ccc(OC)cc2)c2ccc(OC)cc2)cc1	117%	–
CC1CC(OC(=O)C(O)c2ccccc2)CC(C)(C)C1 (configuration not stated)	116%	–

Structure (SMILES)	cell viability (compound concentration: 3 uM)	cell viability [1]
Nc1nc2c(ncn2[C@H]2C[C@H](O)[C@@H](CO)O2)c(=O)[nH]1 [2'-Deoxyguanosine hydrate]	–	91.9%
NS(=O)(=O)c1cc(C(=O)O)cc(N2CCCC2)c1Oc1ccccc1 [Piretanide]	92.3%	–
Cc1cc(C(C)(C)C)c(O)c(C)c1CC1=NCCN1	105%	–
Cc1cc(C(C)(C)C)c(O)c(C)c1CC1=NCCN1 [Oxymetazoline]	103%	–
Cc1cc(C(C)(C)C)c(O)c(C)c1CC1=NCCN1 [Oxymetazoline hydrochloride]	101.6 ± 0.54%	–
CN(C)CCCN1c2ccccc2Sc2ccccc21 [Promazine hydrochloride]	115 ± 9.6%	–
CN(C)CCCN1c2ccccc2Sc2ccccc21	94.8%	–
CC(N)=NCCCC[C@H](N)C(=O)O [L-N6-(1-Iminoethyl)lysine hydrochloride]	98.8%	–
CC(C)(C(=O)O)c1ccc(C(O)CCCN2CCC(C(O)(c3ccccc3)c3ccccc3)CC2)cc1 (configuration not stated)	105%	–
CC(C)(C(=O)O)c1ccc(C(O)CCCN2CCC(C(O)(c3ccccc3)c3ccccc3)CC2)cc1 (configuration not stated) [Fexofenadine HCl]	99.8%	–
CC(C)(C(=O)O)c1ccc(C(O)CCCN2CCC(C(O)(c3ccccc3)c3ccccc3)CC2)cc1 (configuration not stated) [Fexofenadine hydrochloride]	101%	–
COc1ccc([C@@H]2CC(=O)c3c(O)cc(O[C@@H]4O[C@H](CO[C@@H]5O[C@@H](C)[C@H](O)[C@@H](O)[C@H]5O)[C@@H](O)[C@H](O)[C@H]4O)cc3O2)cc1O [Hesperidin, 80%]	–	103%
COc1ccc([C@@H]2CC(=O)c3c(O)cc(O[C@@H]4O[C@H](CO[C@@H]5O[C@@H](C)[C@H](O)[C@@H](O)[C@H]5O)[C@@H](O)[C@H](O)[C@H]4O)cc3O2)cc1O [Hesperidin]	118%	–
COC(=O)C1=C(C)NC(C)=C(C(=O)OCCN2CCN(C(c3ccccc3)c3ccccc3)CC2)C1c1cccc([N+](=O)[O-])c1 (configuration not stated) [Manidipine]	128%	–
COC(c1ccccc1)(c1ccccc1)[C@H](Oc1nc(C)cc(C)n1)C(=O)O [Ambrisentan]	92.4%	–
C[N+]1(C)[C@@H]2CC[C@H]1C[C@@H](OC(=O)C(O)c1ccccc1)C2 (some centres not stated)	103%	–
Cc1c(C)c2c(c(C)c1O)CCC(C)(COc1ccc(CC3SC(=O)NC3=O)cc1)O2 (configuration not stated) [Troglitazone]	115 ± 3.5%	–
Cc1ccc(O)c(N=Nc2ccccc2)n1	115%	–
CC(C(=O)O)c1ccc2c(c1)Cc1cccnc1O2 (configuration not stated) [Pranoprofen]	114 ± 5.6%	–
C[C@H]1COc2c(C3(N)CC3)c(F)cc3c(=O)c(C(=O)O)cn1c23 [Pazufloxacin]	114%	–
C[C@H]1COc2c(C3(N)CC3)c(F)cc3c(=O)c(C(=O)O)cn1c23	89.1%	–

Structure (SMILES)	cell viability (compound concentration: 3 uM)	cell viability [1]
CC(C)(C)C(=O)Oc1ccc(S(=O)(=O)Nc2ccccc2C(=O)NCC(=O)O)cc1 [Sivelestat sodium salt hydrate]	114%	–
CSc1ccc2c(c1)C(N1CCN(C)CC1)Cc1ccccc1S2 (configuration not stated) [Methiothepin maleate]	89.4%	–
CSc1ccc2c(c1)C(N1CCN(C)CC1)Cc1ccccc1S2 (configuration not stated) [Methiothepin]	106%	–
CSc1ccc2c(c1)C(N1CCN(C)CC1)Cc1ccccc1S2 (configuration not stated)	106%	–
CSc1ccc2c(c1)C(N1CCN(C)CC1)Cc1ccccc1S2 (configuration not stated) [Methiothepin mesylate]	108%	–
C[N+]1(C)[C@@H]2C[C@@H](OC(=O)C(O)(c3cccs3)c3cccs3)C[C@H]1[C@@H]1O[C@@H]12 [Tiotropium Bromide]	102%	–
CC(=O)Nc1ccccc1	105%	–
COC(=O)[C@H]1[C@H]2C[C@H]3c4[nH]c5ccccc5c4CCN3C[C@@H]2CC[C@@H]1O [Corynanthine hydrochloride]	–	85.5%
COC(=O)[C@H]1[C@H]2C[C@H]3c4[nH]c5ccccc5c4CCN3C[C@@H]2CC[C@@H]1O [Corynanthine]	–	90.2%
COc1ccc2c(c1OC)C(=O)OC2C1c2c(cc3c(c2OC)OCO3)CCN1C [(S,R)-Noscapine]	–	96.7%
N=C(N)NS(=O)(=O)c1ccc(N)cc1 [Sulfaguanidine]	87.8%	–
N=C(N)NS(=O)(=O)c1ccc(N)cc1	112 ± 2.5%	–
O=c1[nH]c(=O)n([C@@H]2O[C@H](CO)[C@@H](O)[C@H]2O)cc1Br [5-Bromouridine]	–	93.1%
CC1=C(/C=C/C(C)=C/C=C/C(C)=C/C=C/C=C(C)/C=C/C=C(C)/C=C/C2=C(C)C(=O)[C@@H](O)CC2(C)C)C(C)(C)C[C@H](O)C1=O [Astaxanthin]	108%	–
O=C(O)[C@H]1NCCC[C@H]1C(=O)O (racemic) [(±)-cis-Piperidine-2,3-dicarboxylic acid]	96.8%	–
CC(=O)Oc1ccccc1C(=O)O	107%	–
CC(=O)Oc1ccccc1C(=O)O [Acetylsalicylic Acid]	106%	–
CC(=O)Oc1ccccc1C(=O)O [Acetylsalicylic acid]	108 ± 16%	–
NC(=O)C1=CN(C2OC(COP(=O)(O)OP(=O)(O)OC[C@H]3O[C@@H](n4cnc5c(N)ncnc54)C(OP(=O)(O)O)[C@H]3O)C(O)C2O)C=CC1 (some centres not stated) [NADPH tetrasodium]	113%	–

Reprinted at random: 3 entries already listed
Structure (SMILES)	cell viability (compound concentration: 3 uM)	cell viability [1]
CSc1ccc2c(c1)C(N1CCN(C)CC1)Cc1ccccc1S2 (configuration not stated)	106%	–
CC(=O)Oc1ccccc1C(=O)O	107%	–
COC(=O)[C@H]1[C@H]2C[C@H]3c4[nH]c5ccccc5c4CCN3C[C@@H]2CC[C@@H]1O [Corynanthine]	–	90.2%

Given bar-delimited: entries from further up.
Structure (SMILES) | cell viability (compound concentration: 3 uM) | cell viability [1]
CSc1ccc2c(c1)C(N1CCN(C)CC1)Cc1ccccc1S2 (configuration not stated) [Methiothepin maleate] | 89.4% | –
CSc1ccc2c(c1)C(N1CCN(C)CC1)Cc1ccccc1S2 (configuration not stated) [Methiothepin] | 106% | –
